Test results taken from publication doi:10.1101/2021.07.09.451832.
Like-named read-outs stand apart in the source and are kept apart here. These are yes or no findings as the source states them, for the method shown. For some assays here: Binding seen in cells or lysates may run through a third protein. Some entries that bind do so weakly or less than the wild type. For some assays here: Tags and fused reporters may be left off the sequences shown.

By UniProt entry, the sequences of proteins in these tests, tags left out. Where a name states a change or a piece, a line headed by the entry shows the natural chain unless it says otherwise.
UniProt O75460: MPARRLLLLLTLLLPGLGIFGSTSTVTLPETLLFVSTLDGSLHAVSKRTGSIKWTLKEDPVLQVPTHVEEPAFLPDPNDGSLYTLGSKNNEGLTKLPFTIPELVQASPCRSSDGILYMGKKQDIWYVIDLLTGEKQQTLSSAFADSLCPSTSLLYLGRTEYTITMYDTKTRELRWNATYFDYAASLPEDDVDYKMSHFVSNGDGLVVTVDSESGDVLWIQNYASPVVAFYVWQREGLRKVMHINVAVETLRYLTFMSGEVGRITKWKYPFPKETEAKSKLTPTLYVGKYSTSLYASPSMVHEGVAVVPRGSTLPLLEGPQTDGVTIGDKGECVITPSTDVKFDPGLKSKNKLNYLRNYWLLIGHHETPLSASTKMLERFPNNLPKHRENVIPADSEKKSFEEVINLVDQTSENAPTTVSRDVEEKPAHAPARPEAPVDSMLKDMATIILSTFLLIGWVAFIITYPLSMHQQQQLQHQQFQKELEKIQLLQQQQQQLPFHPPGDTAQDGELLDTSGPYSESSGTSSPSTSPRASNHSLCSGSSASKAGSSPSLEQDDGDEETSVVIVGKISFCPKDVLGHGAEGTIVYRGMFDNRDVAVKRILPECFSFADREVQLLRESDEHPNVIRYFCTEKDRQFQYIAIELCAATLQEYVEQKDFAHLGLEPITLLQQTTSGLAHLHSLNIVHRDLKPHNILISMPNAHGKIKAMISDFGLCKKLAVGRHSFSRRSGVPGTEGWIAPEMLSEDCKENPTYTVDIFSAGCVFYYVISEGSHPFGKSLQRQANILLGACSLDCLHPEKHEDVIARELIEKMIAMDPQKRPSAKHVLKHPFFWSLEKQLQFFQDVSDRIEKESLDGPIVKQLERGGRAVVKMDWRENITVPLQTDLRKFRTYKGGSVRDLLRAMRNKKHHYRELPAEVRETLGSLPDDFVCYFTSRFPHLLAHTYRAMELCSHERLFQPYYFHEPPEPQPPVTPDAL
UniProt P31749: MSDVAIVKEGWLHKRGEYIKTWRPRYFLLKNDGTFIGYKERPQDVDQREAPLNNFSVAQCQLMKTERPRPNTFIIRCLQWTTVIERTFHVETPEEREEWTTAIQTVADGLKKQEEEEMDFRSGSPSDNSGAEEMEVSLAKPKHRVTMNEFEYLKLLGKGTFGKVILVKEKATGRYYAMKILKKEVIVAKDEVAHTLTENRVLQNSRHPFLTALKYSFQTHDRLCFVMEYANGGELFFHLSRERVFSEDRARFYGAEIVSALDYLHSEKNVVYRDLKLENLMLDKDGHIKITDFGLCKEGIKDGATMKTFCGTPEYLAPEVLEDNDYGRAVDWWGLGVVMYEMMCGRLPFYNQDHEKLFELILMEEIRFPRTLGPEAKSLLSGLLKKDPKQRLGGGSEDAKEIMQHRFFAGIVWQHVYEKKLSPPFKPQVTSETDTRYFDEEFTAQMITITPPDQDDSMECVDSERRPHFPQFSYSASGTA

Experiments:
[1] = target: T1, sMEK1 (sMEK1-pcDNA3.1) (human) (UniProt Q6IN85); test: co-IP
T1 sequence: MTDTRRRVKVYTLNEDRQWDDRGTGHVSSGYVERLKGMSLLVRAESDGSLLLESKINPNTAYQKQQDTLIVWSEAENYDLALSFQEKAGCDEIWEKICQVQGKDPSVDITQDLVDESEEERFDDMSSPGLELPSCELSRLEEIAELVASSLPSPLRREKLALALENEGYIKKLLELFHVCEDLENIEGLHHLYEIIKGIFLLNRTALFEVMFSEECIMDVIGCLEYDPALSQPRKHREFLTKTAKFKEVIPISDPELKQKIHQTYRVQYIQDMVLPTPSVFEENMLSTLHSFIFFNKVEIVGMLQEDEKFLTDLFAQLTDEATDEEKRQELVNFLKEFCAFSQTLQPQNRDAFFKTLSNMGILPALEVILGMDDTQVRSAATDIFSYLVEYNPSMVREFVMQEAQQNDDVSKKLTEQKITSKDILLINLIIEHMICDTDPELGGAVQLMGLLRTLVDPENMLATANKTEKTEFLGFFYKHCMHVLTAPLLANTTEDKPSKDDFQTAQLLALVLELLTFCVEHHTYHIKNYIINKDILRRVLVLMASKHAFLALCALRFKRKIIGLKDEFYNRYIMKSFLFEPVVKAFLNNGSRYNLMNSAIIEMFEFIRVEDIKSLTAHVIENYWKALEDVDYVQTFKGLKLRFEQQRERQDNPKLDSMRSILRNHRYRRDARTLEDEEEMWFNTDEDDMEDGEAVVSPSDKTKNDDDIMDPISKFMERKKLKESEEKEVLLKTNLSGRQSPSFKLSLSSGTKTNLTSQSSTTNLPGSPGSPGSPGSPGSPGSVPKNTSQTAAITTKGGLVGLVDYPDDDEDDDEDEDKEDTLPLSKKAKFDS

[2] = target: IRE1 (Inositol requiring enzyme 1), IRE1-pcDNA3.1 (human) (UniProt O75460); test: co-IP
[3] = target: T2, sMEK1 fused to the Gal4 binding domain (sMEK1-pGBT9) (human) (UniProt Q6IN85); test: two-hybrid
T2 sequence: T1 sequence

Akt-HA (Akt-HA-pcDNA3.1) [4] = target: Akt-HA (Akt-HA-pcDNA3.1) (UniProt P31749); test: co-IP
Akt-pGBT9 = Akt-pGBT9 (UniProt P31749); test: two-hybrid
[5] = target: IRE1 (Inositol requiring enzyme 1), IRE1-pcDNA3.1 (human) (UniProt O75460); test: co-IP; remark: listed apart in the source
Akt-HA (Akt-HA-pcDNA3.1) [6] = target: Akt-HA (Akt-HA-pcDNA3.1) (UniProt P31749); test: co-IP; remark: listed apart in the source

Akt-HA (Akt-HA-pcDNA3.1) (from UniProt P31749 1-480)
binding [1]: binds
binding [2]: binds

Akt-pGAD424 (from UniProt P31749 1-480)
binding [3]: binds

IRE1 (Inositol requiring enzyme 1), IRE1-pcDNA3.1 (from UniProt O75460 19-977)
binding (Akt-HA (Akt-HA-pcDNA3.1) [4]): binds

IRE1 fused to the Gal4 transcription activation domain (IRE1-pGAD424) (from UniProt O75460 1-977)
binding (Akt-pGBT9): binds
binding [3]: binds

B1: sMEK1-GST (sMEK1-pEBG-GST) (protein, UniProt Q6IN85 1-833)
chain: T1 sequence
binding [5]: binds

B2: sMEK1 (sMEK1-pcDNA3.1) (protein, UniProt Q6IN85 1-833)
chain: T1 sequence
binding (Akt-HA (Akt-HA-pcDNA3.1) [6]): binds
